From patent US20130071432A1 (priority 2011, published 2013)
For at least one compound, name, drawing or mass did not settle the structure.

Assays:
[1] = system: RNase L; type: cell-based, human, mouse
[2] = system: ACHN tumors; settings: mouse, in vivo, po
[3] = system: PKR; type: cell-based, human, mouse
[4] = system: cancer cell lines
[5] = system: PC3 tumors; settings: mouse, in vivo, po, 20 mg/kg

## CCN(CC)CCNC(=O)c1c(C)[nH]c(/C=C2\C(=O)Nc3ccc(F)cc32)c1C [sunitinib]
[1]
  rRNA cleavage products (RNase L activity): little or no rRNA cleavage products
[2]
  effect on ACHN tumors (tumor growth): retarded tumor growth
[3]
  PKR activity (phosphorylation of its substrate eIF2α): effectively inhibited PKR
[4]
  cell viability / cell death: minimal reduction in cell viability
  reduction in cell viability: some reduction in cell viability
[4]; PC3 cells, normally resistant to VSV, sunitinib 5 μM
  susceptibility of PC3 cells to VSV: rendered susceptible to VSV
[5]
  effect on PC3 tumors (tumor growth): partial effects
